The target of assay [1] is TAP-tagged human Staufen1 (55 kDa isoform) (human) (UniProt O95793). In words: co-IP; two-step TAP affinity purification from extracts of co-transfected HEK293T cells: IgG-Sepharose, TEV digestion, calmodulin-agarose, EGTA elution; Western blot with anti-HA and anti-hStau1; lysis in TNE, 0.5% NP-40, with RNase inhibitor.
Assay [2] has the same target. In words: co-IP; one-step TAP purification from extracts of transfected HEK293T cells: IgG-Sepharose, eluted by digestion with TEV; Western blot with anti-Ago2 and anti-hStau1.

Protein sequences, listed by entry. Tags and fused reporters are not part of them. Residues count along the entry.
UniProt O95793, residues 82-577: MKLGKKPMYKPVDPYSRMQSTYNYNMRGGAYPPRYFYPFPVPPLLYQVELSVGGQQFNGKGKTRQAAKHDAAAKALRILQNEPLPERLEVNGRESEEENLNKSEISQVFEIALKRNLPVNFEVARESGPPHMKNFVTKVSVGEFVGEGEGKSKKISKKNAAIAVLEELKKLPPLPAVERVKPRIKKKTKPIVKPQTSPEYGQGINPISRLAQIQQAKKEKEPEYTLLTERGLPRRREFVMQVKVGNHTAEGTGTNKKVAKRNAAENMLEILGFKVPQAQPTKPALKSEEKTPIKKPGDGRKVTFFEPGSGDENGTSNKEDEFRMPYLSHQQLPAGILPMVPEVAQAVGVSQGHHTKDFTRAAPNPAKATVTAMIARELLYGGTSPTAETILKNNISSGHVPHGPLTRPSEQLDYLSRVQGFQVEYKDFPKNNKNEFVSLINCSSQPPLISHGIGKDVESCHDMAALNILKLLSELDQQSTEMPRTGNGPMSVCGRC
UniProt Q9UKV8: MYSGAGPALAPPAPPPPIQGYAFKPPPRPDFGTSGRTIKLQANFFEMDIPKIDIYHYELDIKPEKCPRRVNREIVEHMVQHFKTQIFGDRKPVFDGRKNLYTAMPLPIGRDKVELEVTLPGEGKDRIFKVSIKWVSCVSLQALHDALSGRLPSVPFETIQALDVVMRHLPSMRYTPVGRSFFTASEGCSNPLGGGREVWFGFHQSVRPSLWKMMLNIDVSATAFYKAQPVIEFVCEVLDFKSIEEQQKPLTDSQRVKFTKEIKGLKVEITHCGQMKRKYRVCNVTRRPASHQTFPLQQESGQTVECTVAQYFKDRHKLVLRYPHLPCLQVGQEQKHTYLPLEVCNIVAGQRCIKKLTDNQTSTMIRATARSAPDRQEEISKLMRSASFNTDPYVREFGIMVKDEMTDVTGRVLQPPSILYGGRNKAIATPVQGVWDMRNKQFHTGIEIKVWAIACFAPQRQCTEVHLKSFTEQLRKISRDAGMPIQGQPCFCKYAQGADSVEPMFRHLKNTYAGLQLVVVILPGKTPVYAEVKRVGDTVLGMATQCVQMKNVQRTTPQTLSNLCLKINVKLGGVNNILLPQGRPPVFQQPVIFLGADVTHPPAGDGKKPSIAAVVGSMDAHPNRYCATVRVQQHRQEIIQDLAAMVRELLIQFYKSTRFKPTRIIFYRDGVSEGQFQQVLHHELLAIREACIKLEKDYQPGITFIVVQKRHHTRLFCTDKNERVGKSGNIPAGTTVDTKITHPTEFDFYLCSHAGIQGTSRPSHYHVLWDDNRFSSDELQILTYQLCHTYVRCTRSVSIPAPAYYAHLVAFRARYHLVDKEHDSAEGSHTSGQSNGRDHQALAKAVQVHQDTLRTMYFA

No constants are given. Whether binding was seen depends on the method and setting. In cells and extracts the contact can be indirect. Some results given as binding are weak or reduced against the parent protein; the word gives no strength.

“Ago1-HA-Flag (from UniProt Q9UL18 1-857)”: the binding result in assay [1] is recorded as “binds”.
Consider “Ago2-HA-Flag (from UniProt Q9UKV8 1-859)”, for which the binding result in assay [1] is given as “binds”.
Turning to “Ago3-HA-Flag (from UniProt Q9H9G7 1-860)”, the binding result in assay [1] was “binds”.
In the case of “endogenous Ago2 (from UniProt Q9UKV8 1-859)”, in assay [2], the binding entry is on record as “binds”.

For the origin of these results see article PMC4244161.
